Results on one substance are retold here after paper doi:10.1101/2022.12.19.521009.

The experiment deals with BD-UmSee1 (Ustilago maydis). The experiment in a line: two-hybrid.

These are yes or no findings as the source states them, for the method shown. Binding can be weak; no strength is given.

For AD-ZmSIP2 (from UniProt A0A1D6G9Q0), the binding entry is given as “binds”.
